The list shows only some results of the screen, not a fair sample: it is rich in T/C values a quarter to a half above the control, in often repeated tests (any T/C) and in doses without a T/C. Further doses and runs are listed elsewhere. T/C: endpoint of the treated group in % of that of the vehicle group. Schedules are NCI's codes, read here as Q, the interval in days (D) or hours (H), X, the number of doses. Some T/C values are followed by the survivors on the day toxicity was checked, most often the fifth; without a count, all were alive then. Some T/C values are negative: the treated tumours shrank. Some entries hold several experiments; the values are given in rising order. Some entries give survivors of the animals treated and no T/C: the source files T/C as zero there, which appears to mark a toxic dose or a test without result, not a measured value. Counts of survivors are from the toxicity check (mostly the fifth day) where no day follows; animals may have died later.
Tested on: MX-1 breast xenograft, nude mice, tumor weight T/C
Assay: NCI In Vivo Anticancer Drug Screen. Data for tumor model Human Mammary Carcinoma MX-1 Xenograft (intrarenal inoculation) in NU/NU Swiss (nude) mice
Conditions: T/C endpoint: mean tumor weight change, higher T/C = larger tumour; for T/C: evaluated on day 11
How it was run: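 Tumor-bearing mice were treated with test compound alongside a vehicle-treated control group. Survival or tumor size was measured, and activity is expressed as the treated-group value divided by the control-group value.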

[1] = dose: 150.0 mg/kg/injection, schedule: Q04DX003 (sc), vehicle: saline with Tween-80
[2] = dose: 600.0 mg/kg/injection, schedule: Q04DX003 (sc), vehicle: saline with Tween-80
[3] = dose: 1200.0 mg/kg/injection, schedule: Q04DX003 (sc), vehicle: saline with Tween-80
[4] = dose: 100.0 mg/kg/injection, schedule: Q01DX010 (sc), vehicle: saline with Tween-80
[5] = dose: 1200.0 mg/kg/injection, schedule: Q04DX003 (sc), vehicle: Klucel (hydroxypropylcellulose) (HPC)
[6] = dose: 2400.0 mg/kg/injection, schedule: Q04DX003 (sc), vehicle: Klucel (hydroxypropylcellulose) (HPC)

O=c1n(CC2CO2)c(=O)n(CC2CO2)c(=O)n1CC1CO1 (stereo not drawn)
T/C (dose: 18.75 mg/kg/injection, schedule: Q04DX003 (sc), vehicle: saline with Tween-80): 26, 47, 78, 82 % of control
T/C (dose: 37.5 mg/kg/injection, schedule: Q04DX003 (sc), vehicle: saline with Tween-80): 16, 39, 69, 122 % of control
T/C (dose: 75.0 mg/kg/injection, schedule: Q04DX003 (sc), vehicle: saline with Tween-80): -15, 16, 17 [5 of 6 alive on day 11], 80 % of control
survivor count (dose: 100.0 mg/kg/injection, schedule: Q04DX003 (sc), vehicle: saline): 3 of 6 on day 11
T/C [1]: 6 [5 of 6 alive on day 11] and 65 % of control
survivor count [1]: 0 of 4 on day 11 and 0 of 6 on day 11
survivor count (dose: 200.0 mg/kg/injection, schedule: Q04DX003 (sc), vehicle: saline): 0 of 6 on day 11
survivor count (dose: 300.0 mg/kg/injection, schedule: Q04DX003 (sc), vehicle: saline with Tween-80): 0 of 6 on day 11
survivor count [2]: 0 of 6 on day 11
survivor count [3]: 0 of 6 on day 11

CCN(CC)CCCC(C)Nc1c2ccc(Cl)cc2nc2ccc(OC)cc12 (stereo not drawn)
survivor count (dose: 200.0 mg/kg/injection, schedule: Q01DX010 (sc), vehicle: saline with Tween-80): 0 of 3 on day 11
survivor count (dose: 400.0 mg/kg/injection, schedule: Q01DX010 (sc), vehicle: saline with Tween-80): 0 of 2 on day 11

CCOC(=O)Nc1cc2c(c(N)n1)N=C(c1ccc(Cl)cc1Cl)CN2
survivor count [2]: 3 of 6 on day 11
survivor count [3]: 0 of 6 on day 11

CN(C=O)C(C(=O)Nc1cccc2c(OC(=O)C(N(C)C=O)(N(C)C=O)N(C)C=O)c(N=Nc3ccc(S(=O)(=O)Nc4nccs4)cc3)cc(N=Nc3ccc(S(=O)(=O)Nc4nccs4)cc3)c12)(N(C)C=O)N(C)C=O (tested in a mixture with another compound)
T/C [2]: 142 % of control
T/C [3]: 148 % of control

NC(=O)/C=C/C(=O)c1c(Cl)cccc1Cl
T/C (dose: 18.0 mg/kg/injection, schedule: Q04DX003 (sc), vehicle: saline with Tween-80): 126 % of control
survivor count (dose: 72.0 mg/kg/injection, schedule: Q04DX003 (sc), vehicle: saline with Tween-80): 0 of 6 on day 11

CC(=O)c1cccc(NC2C(N)C(NC(=O)N(C)C)(C(C)O)C(C)(O)C2(O)COC(=O)c2c(C)cccc2O)c1 (stereo not drawn)
survivor count (dose: 50.0 mg/kg/injection, schedule: Q04DX003 (ip), vehicle: suspension in saline): 1 of 6 on day 11

Cc1ccccc1SSc1ccccc1C
T/C [4]: 134 % of control

CC(C)(C)NC(C1=CC(C)(C)c2ccccc2C1=O)c1ccccc1 (stereo not drawn)
survivor count (dose: 600.0 mg/kg/injection, schedule: Q04DX003 (ip), vehicle: Klucel (hydroxypropylcellulose) (HPC)): 2 of 6 on day 11
survivor count (dose: 1200.0 mg/kg/injection, schedule: Q04DX003 (ip), vehicle: Klucel (hydroxypropylcellulose) (HPC)): 0 of 5 on day 11

CCCCCCCCCCCCSC1=C(Cl)C(=O)C(OC)=C(OC)C1=O
T/C [1]: 131 % of control [4 of 5 alive on day 11]
survivor count [3]: 3 of 6 on day 11

O=S(=O)(O)c1cc(N=C=S)ccc1/C=C/c1ccc(N=C=S)cc1S(=O)(=O)O
survivor count (dose: 300.0 mg/kg/injection, schedule: Q04DX003 (ip), vehicle: saline): 2 of 6 on day 11
survivor count (dose: 600.0 mg/kg/injection, schedule: Q04DX003 (ip), vehicle: saline): 0 of 6 on day 11
survivor count (dose: 1200.0 mg/kg/injection, schedule: Q04DX003 (ip), vehicle: saline): 0 of 6 on day 11

C[CH2][Sn]([CH2]C)([CH2]C(=O)OC)[CH2]C(=O)OC
survivor count (dose: 50.0 mg/kg/injection, schedule: Q04DX003 (sc), vehicle: saline with Tween-80): 1 of 6 on day 11
survivor count (dose: 100.0 mg/kg/injection, schedule: Q04DX003 (sc), vehicle: saline with Tween-80): 0 of 6 on day 11

CN1C(=O)CC2(CCN(CCCC(=O)c3ccc(F)cc3)CC2)C1=O
T/C (dose: 75.0 mg/kg/injection, schedule: Q04DX003 (sc), vehicle: suspension in saline): 130 % of control [5 of 6 alive on day 11]
survivor count (dose: 300.0 mg/kg/injection, schedule: Q04DX003 (sc), vehicle: suspension in saline): 3 of 6 on day 11

CCCCOCN(COCCCC)C(C)Cc1ccccc1 (stereo not drawn)
survivor count (dose: 1600.0 mg/kg/injection, schedule: Q04DX003 (sc), vehicle: saline with Tween-80): 1 of 6 on day 11

Nc1cc(Cl)c2[nH]cnc2n1
survivor count (dose: 1600.0 mg/kg/injection, schedule: Q04DX003 (sc), vehicle: water): 0 of 6 on day 11

CC1=CC2C(O)(CC(CO)=CC3C4C(C)(C)C4(OC(=O)c4ccccc4)C(OC(=O)c4ccccc4)C(C)C32O)C1=O (stereo not drawn)
survivor count (dose: 20.0 mg/kg/injection, schedule: Q04DX003 (sc), vehicle: saline with Tween-80): 3 of 6 on day 11

COC1=C(NC(C)=O)C(=O)c2nc(-c3nc(C(=O)O)c(C)c(-c4ccc(OC)c(OC)c4O)c3N)ccc2C1=O
survivor count (dose: 200.0 mg/kg/injection, schedule: Q04DX003 (sc), vehicle: Klucel (hydroxypropylcellulose) (HPC)): 3 of 6 on day 11
survivor count (dose: 400.0 mg/kg/injection, schedule: Q04DX003 (sc), vehicle: Klucel (hydroxypropylcellulose) (HPC)): 3 of 6 on day 11

Cc1cc(NCCCCCCCNc2cc(C)nc3cc(N)ccc23)c2ccc(N)cc2n1
survivor count [4]: 0 of 3 on day 11 and 0 of 6 on day 11

CCOc1ccc(-c2nc3ccc(-c4nc5ccc(N6CCN(C)CC6)cc5[nH]4)cc3[nH]2)cc1
survivor count (dose: 50.0 mg/kg/injection, schedule: Q04DX003 (ip), vehicle: saline): 0 of 6 on day 11
survivor count (dose: 100.0 mg/kg/injection, schedule: Q04DX003 (ip), vehicle: saline): 0 of 6 on day 11
survivor count (dose: 200.0 mg/kg/injection, schedule: Q04DX003 (ip), vehicle: saline): 0 of 6 on day 11

CCC1OCC(C(Cl)CCl)O1 (stereo not drawn)
T/C (dose: 300.0 mg/kg/injection, schedule: Q04DX003 (sc), vehicle: Klucel (hydroxypropylcellulose) (HPC)): 39, 57, 74, 76, 110, 137 % of control
T/C (dose: 600.0 mg/kg/injection, schedule: Q04DX003 (sc), vehicle: Klucel (hydroxypropylcellulose) (HPC)): 33, 34, 93, 98, 108, 122 % of control
T/C [5]: 6 [4 of 6 alive on day 11], 15, 40, 46 [5 of 6 alive on day 11], 74 % of control
survivor count [5]: 2 of 6 on day 11
T/C [6]: 13 [5 of 6 alive on day 11], 26, 45 % of control
survivor count [6]: 0 of 6 on day 11 and 3 of 6 on day 11

NC(=O)c1ncn2c(=O)n(CCCl)nnc12
survivor count (dose: 100.0 mg/kg/injection, schedule: Q04DX003 (sc), vehicle: suspension in saline): 2 of 6 on day 11
survivor count (dose: 200.0 mg/kg/injection, schedule: Q04DX003 (sc), vehicle: suspension in saline): 0 of 6 on day 11
